{"source": "PubChem BioAssay AID602196 (INSERM, 2012)", "purpose": "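Genes whose knock-down alters cisplatin killing of lung cancer cells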", "cell system": "human A549 lung cancer cells", "knock-down reagent": "siRNA pair against human genes", "timing": "48 h transfection before cisplatin; time from cisplatin to read-out not stated", "challenge": "cisplatin at a dose killing half of control-siRNA cells; exact dose and duration not given", "measurement": "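Cisplatin cell death as a shift from the 50% death seen with control siRNA; siRNAs toxic or growth-blocking alone scored 0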", "direction": "two-siRNA summed score (-2 to +2): higher = both siRNAs protect from cisplatin killing; -2 means both sensitise; mean protection from cisplatin (shift in death): higher = protection from cisplatin killing", "rule for the call": "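siRNAs harmful alone (LDH or WST-1) get 0; others get +1 for less and -1 for more cisplatin killing; genes are active when the two siRNAs give the same sign, summing to ±2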", "meaning of the calls": "active = both siRNAs shift cisplatin killing the same way; inactive = no consistent shift, or siRNA harmful alone", "note": "In all, the deposit lists about 23,000 reagents; below is a random part of them. Of all reagents, 455 (2%) got an active call. 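Active includes both protection and sensitisation; some change values fall well beyond the stated -50 to +50 range.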 Not all columns of the deposit are shown. Not stated in the record: the amount of reagent."}
{"target gene": "CCDC181", "two-siRNA summed score (-2 to +2)": 0, "mean protection from cisplatin (shift in death) (%)": 0.2, "outcome": "inactive"}
{"target gene": "LOC375719", "two-siRNA summed score (-2 to +2)": 0, "mean protection from cisplatin (shift in death) (%)": -0.9, "outcome": "inactive"}
{"target gene": "MOB3A", "two-siRNA summed score (-2 to +2)": 0, "mean protection from cisplatin (shift in death) (%)": -1.2, "outcome": "inactive"}
{"target gene": "MEMO1", "two-siRNA summed score (-2 to +2)": 0, "mean protection from cisplatin (shift in death) (%)": -2.3, "outcome": "inactive"}
{"target gene": "UBE3C", "two-siRNA summed score (-2 to +2)": -2, "mean protection from cisplatin (shift in death) (%)": -23.3, "outcome": "active"}
{"target gene": "STARD13", "two-siRNA summed score (-2 to +2)": 0, "mean protection from cisplatin (shift in death) (%)": -0.7, "outcome": "inactive"}
{"target gene": "LINC00926", "two-siRNA summed score (-2 to +2)": 0, "mean protection from cisplatin (shift in death) (%)": 15.8, "outcome": "inactive"}
{"target gene": "LOC442700", "two-siRNA summed score (-2 to +2)": 1, "mean protection from cisplatin (shift in death) (%)": 18.5, "outcome": "inactive"}
{"target gene": "CRYZ", "two-siRNA summed score (-2 to +2)": 0, "mean protection from cisplatin (shift in death) (%)": -1.8, "outcome": "inactive"}
{"target gene": "CDYL", "two-siRNA summed score (-2 to +2)": 0, "mean protection from cisplatin (shift in death) (%)": 5.5, "outcome": "inactive"}
{"target gene": "OR2A2", "two-siRNA summed score (-2 to +2)": 0, "mean protection from cisplatin (shift in death) (%)": -0.4, "outcome": "inactive"}
{"target gene": "MAML3", "two-siRNA summed score (-2 to +2)": -1, "mean protection from cisplatin (shift in death) (%)": -12.5, "outcome": "inactive"}
{"target gene": "FAM13A", "two-siRNA summed score (-2 to +2)": 1, "mean protection from cisplatin (shift in death) (%)": 11.3, "outcome": "inactive"}
{"target gene": "SCRG1", "two-siRNA summed score (-2 to +2)": 1, "mean protection from cisplatin (shift in death) (%)": 10.7, "outcome": "inactive"}
{"target gene": "POLR3D", "two-siRNA summed score (-2 to +2)": 0, "mean protection from cisplatin (shift in death) (%)": -0.4, "outcome": "inactive"}
{"target gene": "CYP4A11", "two-siRNA summed score (-2 to +2)": 0, "mean protection from cisplatin (shift in death) (%)": -1.8, "outcome": "inactive"}
{"target gene": "LYPLAL1", "two-siRNA summed score (-2 to +2)": 0, "mean protection from cisplatin (shift in death) (%)": -3.4, "outcome": "inactive"}
{"target gene": "LOC387821", "two-siRNA summed score (-2 to +2)": 0, "mean protection from cisplatin (shift in death) (%)": 9.4, "outcome": "inactive"}
{"target gene": "CPNE3", "two-siRNA summed score (-2 to +2)": -1, "mean protection from cisplatin (shift in death) (%)": 2.2, "outcome": "inactive"}
{"target gene": "LOC441631", "two-siRNA summed score (-2 to +2)": 0, "mean protection from cisplatin (shift in death) (%)": 3.2, "outcome": "inactive"}
{"target gene": "HLA-DQB1", "two-siRNA summed score (-2 to +2)": 1, "mean protection from cisplatin (shift in death) (%)": 5.6, "outcome": "inactive"}
{"target gene": "CLMP", "two-siRNA summed score (-2 to +2)": -1, "mean protection from cisplatin (shift in death) (%)": -8.4, "outcome": "inactive"}
{"target gene": "LOC442552", "two-siRNA summed score (-2 to +2)": 1, "mean protection from cisplatin (shift in death) (%)": 22.9, "outcome": "inactive"}
{"target gene": "ANKRD60", "two-siRNA summed score (-2 to +2)": -1, "mean protection from cisplatin (shift in death) (%)": -3.9, "outcome": "inactive"}
{"target gene": "LOC147645", "two-siRNA summed score (-2 to +2)": 0, "mean protection from cisplatin (shift in death) (%)": 9.1, "outcome": "inactive"}
{"target gene": "FBXO42", "two-siRNA summed score (-2 to +2)": 1, "mean protection from cisplatin (shift in death) (%)": 22, "outcome": "inactive"}
{"target gene": "LOC388763", "two-siRNA summed score (-2 to +2)": 1, "mean protection from cisplatin (shift in death) (%)": 0.4, "outcome": "inactive"}
{"target gene": "TEX36", "two-siRNA summed score (-2 to +2)": 1, "mean protection from cisplatin (shift in death) (%)": 12.7, "outcome": "inactive"}
{"target gene": "TNP2", "two-siRNA summed score (-2 to +2)": 0, "mean protection from cisplatin (shift in death) (%)": -5.1, "outcome": "inactive"}
{"target gene": "RBM12B", "two-siRNA summed score (-2 to +2)": 1, "mean protection from cisplatin (shift in death) (%)": 17, "outcome": "inactive"}
{"target gene": "ART4", "two-siRNA summed score (-2 to +2)": 0, "mean protection from cisplatin (shift in death) (%)": 11.4, "outcome": "inactive"}

Part of the list above, set out differently.
target gene	two-siRNA summed score (-2 to +2)	mean protection from cisplatin (shift in death) (%)	outcome
CDYL	0	5.5	inactive
OR2A2	0	-0.4	inactive
MAML3	-1	-12.5	inactive
